Results as given in paper PMC11801639.
These are yes or no findings as the source states them, for the method shown. Some binding calls cover weakened binding; strength is not graded here.

Biological target: T1, human Eme1 (residues 178–570) (human) (UniProt Q96AY2)
T1 sequence: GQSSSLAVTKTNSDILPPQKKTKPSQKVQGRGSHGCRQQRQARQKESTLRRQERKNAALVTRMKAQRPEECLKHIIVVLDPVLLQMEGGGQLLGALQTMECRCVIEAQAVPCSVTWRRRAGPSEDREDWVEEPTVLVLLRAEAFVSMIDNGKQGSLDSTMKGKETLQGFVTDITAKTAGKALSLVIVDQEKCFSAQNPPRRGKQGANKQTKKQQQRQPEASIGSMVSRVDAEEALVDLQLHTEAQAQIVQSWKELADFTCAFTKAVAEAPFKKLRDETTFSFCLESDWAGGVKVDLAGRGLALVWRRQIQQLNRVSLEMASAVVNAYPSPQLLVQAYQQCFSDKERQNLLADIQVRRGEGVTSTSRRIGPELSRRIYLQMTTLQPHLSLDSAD
Test: co-purification (Ni2+-NTA affinity chromatography); both chains co-expressed in E. coli Rosetta (DE3); His-tagged complex purified on Ni2+-NTA and verified by SDS-PAGE

B1: human Mus81 (aa 246–551) (domain or fragment, UniProt Q96NY9 246-551)
chain: SAELASEAGVQQQPLELRPGEYRVLLCVDIGETRGGGHRPELLRELQRLHVTHTVRKLHVGDFVWVAQETNPRDPANPGELVLDHIVERKRLDDLCSSIIDGRFREQKFRLKRCGLERRVYLVEEHGSVHNLSLPESTLLQAVTNTQVIDGFFVKRTADIKESAAYLALLTRGLQRLYQGHTLRSRPWGTPGNPESGAMTSPNPLCSLLTFSDFNAGAIKNKAQSVREVFARQLMQVRGVSGEKAAALVDRYSTPASLLAAYDACATPKEQETLLSTIKCGRLQRNLGPALSRTLSQLYCSYGPLT
binding: binds
